# According to paper PMC7819943, “Rice protein-binding microarrays: a tool to detect cis-acting elements near promoter regions in rice”:
# The list shows a part of the results.
# Target: T1, OsSMF1 (Oryza sativa, UniProt Q6ZLB0 1-436)
# T1 sequence: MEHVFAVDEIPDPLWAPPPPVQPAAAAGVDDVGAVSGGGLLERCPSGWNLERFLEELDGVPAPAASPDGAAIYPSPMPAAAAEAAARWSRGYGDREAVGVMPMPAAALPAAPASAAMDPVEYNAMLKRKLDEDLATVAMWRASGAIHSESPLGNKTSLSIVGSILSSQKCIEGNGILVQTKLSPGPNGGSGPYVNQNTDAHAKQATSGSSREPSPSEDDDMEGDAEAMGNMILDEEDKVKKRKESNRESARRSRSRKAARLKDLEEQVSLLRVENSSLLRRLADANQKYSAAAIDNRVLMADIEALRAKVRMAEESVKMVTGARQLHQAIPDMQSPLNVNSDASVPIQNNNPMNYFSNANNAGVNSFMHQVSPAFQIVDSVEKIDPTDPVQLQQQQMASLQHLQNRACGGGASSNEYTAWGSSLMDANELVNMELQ
# Assay: protein-binding microarray (RPBM); PBS, 2% BSA, 51.3 ng/ul salmon testes DNA, 50 uM zinc acetate, 200 nM TF, 25 C, 1 h; high values mean tight binding
# Conditions: protein: recombinant; tags: N-terminal polyhistidine and DsRed monomer fusion (pET32a); chain copies: 2; label: CyDye5-dUTP incorporated in the synthesized complementary strand; 3' TTTTT single-stranded linker to array surface; dsDNA, one strand shown
# Outline: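 Binding signal here means per-feature fluorescence intensity in arbitrary units. The values were read on an Axon 4000B scanner after a custom Agilent array, double-stranded by primer extension with Cy5-dUTP, was incubated with 200 nM protein at 25 °C for 1 h in PBS with 2% BSA, salmon testes DNA and 50 µM zinc acetate, then washed. The proteins were transcription factors with an N-terminal polyhistidine tag and DsRed, expressed in E. coli BL21-CodonPlus and purified on Ni–NTA.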
row,Sequence,binding signal
1,AACCGAATCCAATCGAGCTCAGGACGAGGCGGAGGAGGAGCGGAGTCACCTAGTGCAG,42900 fluorescence intensity (a.u.)
2,GCATCCTTTTCATTGGCCTTTGCGTGTAATTTGGGGCATGCGGAGTCACCTAGTGCAG,4710 fluorescence intensity (a.u.)
3,TTTAATTCCATGAATGGAACCCTAGATGAGCTGGAACTTGCGGAGTCACCTAGTGCAG,3870 fluorescence intensity (a.u.)
4,AGCTCAATGCCATTACGCTAACAGTTCATCGCTCAATGTTCGGAGTCACCTAGTGCAG,21000 fluorescence intensity (a.u.)
5,CCATGCTGCAGCAGAAGCTTCATCCAAGCCATGGATGACTCGGAGTCACCTAGTGCAG,3420 fluorescence intensity (a.u.)
6,CCTAAATCCGCTCCCCATCTTCCCTGTGACTCTGTTGGCTCGGAGTCACCTAGTGCAG,3410 fluorescence intensity (a.u.)
7,GTGGCACACCTCGCTGCTAATGGCGCTGCTAGCACGACTACGGAGTCACCTAGTGCAG,3260 fluorescence intensity (a.u.)
8,CCAGTTAGGCCCACGAGTAGGTGGAACGACCACCTCACGGCGGAGTCACCTAGTGCAG,3710 fluorescence intensity (a.u.)
9,GGCCTGGCCCAAATTTTCCTGCGGCCCACGTACTCCATCCCGGAGTCACCTAGTGCAG,4290 fluorescence intensity (a.u.)
10,ACTCGGAATCTTCAATCTTGGACACGTGAGCTGGGCTTCTCGGAGTCACCTAGTGCAG,3690 fluorescence intensity (a.u.)
11,CGGGAGAGGGTCGGAGAGACAAGCAGCGGCGGCGGCGGCGCGGAGTCACCTAGTGCAG,3510 fluorescence intensity (a.u.)
12,TTGATCGAGTGCCATTTTATATACACCGTTGTGCATTTCCCGGAGTCACCTAGTGCAG,17300 fluorescence intensity (a.u.)
13,CAAAAGACCGAAACCTCCCCGCGTCCCAGTCACACGCGCTCGGAGTCACCTAGTGCAG,5720 fluorescence intensity (a.u.)
14,TCTGCTAGTGCATCATCACTCAACTCCCCTGATCTATATGCGGAGTCACCTAGTGCAG,3290 fluorescence intensity (a.u.)
15,GCCACCTCGTTGACCTCACCGCGTAGGTGGCGCACCTCCGCGGAGTCACCTAGTGCAG,3480 fluorescence intensity (a.u.)
16,ATCGTACCATAGAAGCCTTATGGACGACGGTTGGTTTCTCCGGAGTCACCTAGTGCAG,3290 fluorescence intensity (a.u.)
17,ACCTTGTCTCCTTACCCAGCGTTTCCAACCATGCCTAACTCGGAGTCACCTAGTGCAG,3410 fluorescence intensity (a.u.)
18,CCGTCCACCACCGCCTTTCTTCGATCCGTCGCCACGCCCTCGGAGTCACCTAGTGCAG,3280 fluorescence intensity (a.u.)
19,CATCTTGTTAATTAGTGGATGATGATGTGGCATCTATGCACGGAGTCACCTAGTGCAG,12900 fluorescence intensity (a.u.)
20,AAATCTATATTTATGTTTGTGTGGTTCCTTAGTTAAATCACGGAGTCACCTAGTGCAG,3850 fluorescence intensity (a.u.)
21,GCGATGGGTATATCACCACGTATAGTCCATAGTCTATACGCGGAGTCACCTAGTGCAG,3190 fluorescence intensity (a.u.)

# Given as tab-separated lines: part of the list above.
row	Sequence	binding signal
1	AACCGAATCCAATCGAGCTCAGGACGAGGCGGAGGAGGAGCGGAGTCACCTAGTGCAG	42900 fluorescence intensity (a.u.)
2	GCATCCTTTTCATTGGCCTTTGCGTGTAATTTGGGGCATGCGGAGTCACCTAGTGCAG	4710 fluorescence intensity (a.u.)

# (further entries)

row,Sequence,binding signal
1,GTTATGTTATTATCCCACCCGAGCCACGTTATACTACCCACGGAGTCACCTAGTGCAG,5140 fluorescence intensity (a.u.)
2,TTGTCAAATAATTAAAACAAATCATGAGTATATTAAGAATCGGAGTCACCTAGTGCAG,3240 fluorescence intensity (a.u.)
3,GATATCCATGTGTATGTCAATGTCACGTGATATGTCTTGTCGGAGTCACCTAGTGCAG,5700 fluorescence intensity (a.u.)
4,TTTCCTGGGCTATGTTGCTGACCAAGCAATGAAGTTAAAACGGAGTCACCTAGTGCAG,4300 fluorescence intensity (a.u.)
5,GGACGGACCACCCGCACCTCTTCCGCGTCAACCACCACCGCGGAGTCACCTAGTGCAG,3260 fluorescence intensity (a.u.)
6,CAAACAAGGAATTAATAGTCCATAACACAATATCTCGTCGCGGAGTCACCTAGTGCAG,17000 fluorescence intensity (a.u.)
7,TGGAAGTTCTCCGCATCATAAACGAGCCTACTGCAGCATCCGGAGTCACCTAGTGCAG,3240 fluorescence intensity (a.u.)
8,GGAGCGCGGACTCGCCGGCCAGCCGCGTCACGCGCTGGCGCGGAGTCACCTAGTGCAG,6650 fluorescence intensity (a.u.)
9,TAAGTGATTTTAGTTAGATGGGACACATCATATTATTATGCGGAGTCACCTAGTGCAG,3530 fluorescence intensity (a.u.)
10,CTTGCCGCCGCCGCGTCAGCTTCCACCGCCGCCGCCGCCGCGGAGTCACCTAGTGCAG,5540 fluorescence intensity (a.u.)
11,AAGTGGGTGAGTCCAATAGGTGTGCACGTGAGGGGAGGGGCGGAGTCACCTAGTGCAG,6340 fluorescence intensity (a.u.)
12,CGGCGCCTAGACTGCGTATCGTAGCTGTCGAACGTGTCGTCGGAGTCACCTAGTGCAG,3640 fluorescence intensity (a.u.)
13,GTGTGTTTGGAATGAGAAATGTGGGGTGGGATTGGAATTACGGAGTCACCTAGTGCAG,4040 fluorescence intensity (a.u.)
14,ATAATGACGCGTTCAATACATATACTCAGTACGTGCTACTCGGAGTCACCTAGTGCAG,3600 fluorescence intensity (a.u.)
15,CGGGGTTGCAGAATTTGGTGGTCCTACGTGGTGGCGGCACCGGAGTCACCTAGTGCAG,6010 fluorescence intensity (a.u.)
16,TTAAAACGCATCAAGATTATAAGAGCCAAGAGAAATTGCACGGAGTCACCTAGTGCAG,3520 fluorescence intensity (a.u.)
17,TTCAATCGTACCACAATGTAGCATGTGTCATGAGCAGAAACGGAGTCACCTAGTGCAG,5210 fluorescence intensity (a.u.)
18,GCTTCGAGCCTTCCTTGTCCAGCGTGGGGCGGGGCACTCCCGGAGTCACCTAGTGCAG,3840 fluorescence intensity (a.u.)
19,GTCCTCCTTAAAACATTAAGTGGTCATCAGTCACTAACGACGGAGTCACCTAGTGCAG,3820 fluorescence intensity (a.u.)
20,GGTTCTTTGCGGCATACGACGGGAATGTTGGGTCCCACGTCGGAGTCACCTAGTGCAG,3570 fluorescence intensity (a.u.)
21,GCGTATGCCGGTGGATTAGGTTTCGAGGGTGGATCCAGTGCGGAGTCACCTAGTGCAG,17800 fluorescence intensity (a.u.)
